{"source": "PubChem BioAssay AID504834", "about": "(National Center for Advancing Translational Sciences (NCATS), 2011)", "note": "In all, about 320,000 compounds went through this assay and about 22,000 (6.9%) were called active. Inconclusive results, whose numbers are uncertain, are shown with a selection of clear calls. Calls come from the whole dose curve; as a rule, active = well fitted inhibition curve with a large enough effect; inconclusive = small, poorly fitted or top-dose-only effect, or another doubt; inactive = no such curve, though single readings can be large or run the other way. Potencies beside an inconclusive call are fits to weak or partial responses and may not hold up. % is set by controls: 0 for no effect and ±100 for the full control effect; potency is the fitted concentration of half-maximal effect.", "data": [{"assay": "Primary qHTS for delayed death inhibitors of the malarial parasite plastid, 96 hour incubation", "settings": "P. falciparum luciferase reporter growth; series mostly up to 28.7 µM; activity change, negative = inhibition: at the top concentration", "how_it_was_run": "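96 h incubation, 37 C, 5% CO2, of luciferase-reporter P. falciparum-infected RBCs (2% hematocrit, 0.05% parasitemia final) with test compounds; endpoint luminescence.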", "values": [{"smiles": "O=C(Nc1ccc(Oc2cccnc2)cc1)C1CCN(Cc2ccc(F)cc2)CC1", "activity change, negative = inhibition": "inactive: 11.1%"}, {"smiles": "Cc1ccc(C)c(NS(=O)(=O)c2ccc3c(c2)NC(=O)CCS3)c1", "Potency": "active: 9.28 µM"}, {"smiles": "CC1(C)C2CCC1(CS(=O)(=O)NCc1ccc(Cl)cc1Cl)C(=O)C2", "note": "(centres undefined)", "activity change, negative = inhibition": "inactive: 0.804%"}, {"smiles": "CCCCCCn1cnc2c(oc3nc4c(cc32)CCCC4)c1=O", "Potency": "inconclusive: 9.28 µM [inhibitor, partial curve, poor fit]"}, {"smiles": "CCOc1ccc(NC(=O)C2CCCN(C(=O)Nc3ccccc3)C2)cc1", "note": "(centres undefined)", "Potency": "inconclusive: 13.1 µM [inhibitor, single point]"}, {"smiles": "COc1ccc(N2C(=O)CSC23C(=O)N2c4c(cccc43)C(C)=CC2(C)C)cc1", "note": "(centres undefined)", "Potency": "active: 7.38 µM"}, {"smiles": "CC(C)(C)c1nnc(N/N=C/c2ccc(O)cc2)n(N)c1=O", "Potency": "inconclusive: 10.4 µM [inhibitor, partial curve]"}, {"smiles": "Cc1ccc2[nH]cc(C(=O)CN3CCN(C)CC3)c2c1", "Potency": "inconclusive: 11.7 µM [inhibitor, single point]"}, {"smiles": "CNC(=S)N(CCc1ccc(OC)c(OC)c1)C1CC(=O)N(c2ccccc2)C1=O", "note": "(centres undefined)", "activity change, negative = inhibition": "inactive: -2.29%"}, {"smiles": "Cc1cc(C)c(NC(=O)CN2CCCCCC2)c(C)c1", "Potency": "inconclusive: 2.62 µM [inhibitor, full curve, poor fit]"}, {"smiles": "Cc1cc(C)n(CCNc2nc3nonc3nc2N2CCCCC2)n1", "activity change, negative = inhibition": "inactive: 32.8%"}, {"smiles": "COC(=O)c1ccc(CSc2nnc(CNC(=O)COc3ccc(Cl)cc3)o2)o1", "Potency": "active: 5.86 µM"}, {"smiles": "Cc1c(C(=O)N2CCN(C(c3ccccc3)c3ccccc3)CC2)oc2ccccc12", "Potency": "active: 14.7 µM"}, {"smiles": "C/C(=N\\NC(=O)c1ccc(Br)cc1)c1cccnc1", "Potency": "inconclusive: 10.4 µM [inhibitor, single point]"}, {"smiles": "COc1ccc2[nH]c3c(c2c1)CCN1C(=O)N([C@@H](C)C(=O)NCCc2ccc(F)cc2)C(=O)[C@]31C", "Potency": "active: 8.28 µM"}, {"smiles": "COc1ccc(OC)c(C(=O)CSc2nccc(-c3ccc(Br)cc3)n2)c1", "Potency": "inconclusive: 11.7 µM [inhibitor, single point]"}, {"smiles": "COc1ccc(-c2cc(C(=O)Nc3ccc(OC)cc3OC)no2)cc1", "activity change, negative = inhibition": "inactive: 37.9%"}, {"smiles": "Cc1cc(C)n(CCC(=O)Nc2cccc(F)c2)n1", "Potency": "inconclusive: 0.657 µM [inhibitor, full curve, poor fit]"}, {"smiles": "CCn1nccc1C(=O)Nc1ccc(C)c(C)c1", "Potency": "inconclusive: 14.7 µM [inhibitor, single point]"}, {"smiles": "CCn1c(SCC(=O)N/N=C/c2ccc(C)o2)nnc1-c1ccc(C(C)(C)C)cc1", "Potency": "inconclusive: 0.329 µM [inhibitor, full curve, poor fit]"}, {"smiles": "CCN(CC(=O)Nc1ccc2c(c1)OCCO2)C(=O)c1cccc(OCC(C)C)c1", "Potency": "inconclusive: 18.5 µM [inhibitor, single point]"}, {"smiles": "O=C(CNCc1ccccc1)Nc1cccc(Cl)c1Cl", "Potency": "inconclusive: 1.47 µM [inhibitor, full curve, poor fit]"}, {"smiles": "O=S(=O)(Nc1nc2ccccc2nc1-[n+]1ccccc1)c1ccc(Cl)cc1", "Potency": "inconclusive: 5.22 µM [inhibitor, partial curve, poor fit]"}, {"smiles": "COCCNC(=O)c1cc(-c2ccc(-c3ccccc3)cc2)nc2ccccc12", "activity change, negative = inhibition": "inactive: -5.21%"}, {"smiles": "C=CCn1c(SCc2cccnc2)nnc1-c1ccncc1", "Potency": "inconclusive: 3.29 µM [inhibitor, full curve, poor fit]"}, {"smiles": "CC(C)CCn1c(=O)c2c(nc3n2CCCN3Cc2ccccc2)n(C)c1=O", "Potency": "active: 6.57 µM"}, {"smiles": "CCOc1ccc(-n2c(SCc3nc(-c4ccc(C)cc4)no3)nnc2-c2ccncc2)cc1", "Potency": "inconclusive: 10.4 µM [inhibitor, single point]"}, {"smiles": "O=C(CSc1nc2ccccc2[nH]1)Nc1c(F)c(F)c(F)c(F)c1F", "activity change, negative = inhibition": "inactive: -21.1%"}, {"smiles": "COc1ccc(CNC(=O)N2CCc3ccccc3C2)cc1", "activity change, negative = inhibition": "inactive: 33.7%"}, {"smiles": "CC(NC(=O)CCn1nc(-c2ccc(Cl)cc2)ccc1=O)c1ccccc1", "note": "(centres undefined)", "Potency": "inconclusive: 0.0033 µM [inhibitor, full curve, poor fit]"}, {"smiles": "COc1cccc(OC)c1/C=C/C(=O)NC1CCCCC1", "Potency": "inconclusive: 14.7 µM [inhibitor, single point]"}, {"smiles": "O=P(c1ccccc1)(c1ccccc1)c1nc(-c2ccccc2)oc1N1CCOCC1", "Potency": "inconclusive: 9.28 µM [inhibitor, single point]"}, {"smiles": "CCCNC(=O)c1ccccc1SCc1c(C)noc1C", "Potency": "inconclusive: 16.5 µM [inhibitor, single point]"}, {"smiles": "CS(=O)(=O)N(CC(=O)NCCSCc1c(F)cccc1Cl)c1ccc2c(c1)OCO2", "activity change, negative = inhibition": "inactive: -1.05%"}, {"smiles": "C=CCOC(=O)C1=C[C@H](C2CCCCC2)[C@@H](CCCO)[C@H](OCC)O1", "Potency": "inconclusive: 1.85 µM [inhibitor, partial curve]"}, {"smiles": "Nc1nonc1-n1nnc(C(=O)N/N=C/c2ccccc2Cl)c1COc1ccc(F)cc1", "activity change, negative = inhibition": "inactive: 14.4%"}, {"smiles": "Cc1cc(NS(=O)(=O)c2ccc(NC(=O)Nc3cccc(C(F)(F)F)c3)cc2)no1", "activity change, negative = inhibition": "inactive: 13.5%"}, {"smiles": "Cc1cccc(C)c1NC(=S)N(CCCN1CCCCC1)Cc1ccco1", "Potency": "inconclusive: 13.1 µM [inhibitor, single point]"}, {"smiles": "NS(=O)(=O)c1ccc(NNC(=O)c2sccc2Cl)cc1", "activity change, negative = inhibition": "inactive: -8.53%"}, {"smiles": "COc1cc(OC)cc(C(=O)N/N=C(\\C)CC(=O)Nc2ccccn2)c1", "Potency": "inconclusive: 9.28 µM [inhibitor, partial curve]"}, {"smiles": "Fc1cccc(Cl)c1CSc1nnc(CN2CCOCC2)n1-c1ccccc1", "Potency": "inconclusive: 9.28 µM [inhibitor, partial curve, poor fit]"}, {"smiles": "Cc1ccc(S(=O)(=O)N2[C@@H](c3cccc(Cl)c3)C(C(=O)O)=CC[C@H]2c2ccc3c(c2)OCO3)cc1", "Potency": "inconclusive: 10.4 µM [inhibitor, single point]"}, {"smiles": "COC(=O)c1c(-c2ccc(OC)cc2)sc2cc3c(cc12)OCO3", "activity change, negative = inhibition": "inactive: 60.5%"}, {"smiles": "COCCCn1c(N)c(C(=O)OCCOC)c2nc3ccccc3nc21", "Potency": "inconclusive: 13.1 µM [inhibitor, single point]"}, {"smiles": "O=C(NN1C(=O)c2ccccc2C1=O)c1ccncc1", "activity change, negative = inhibition": "inactive: 11.4%"}, {"smiles": "O=C(NC1CCc2ccccc21)C12CN(Cc3ccccc3)CC1C(c1cccc([N+](=O)[O-])c1)=NO2", "note": "(centres undefined)", "Potency": "inconclusive: 2.94 µM [inhibitor, full curve]"}, {"smiles": "CNC[C@H](CC1CCCCC1)NC[C@H](CO)NCCc1cccc(C(F)(F)F)c1", "Potency": "active: 1.85 µM"}, {"smiles": "CCn1c(SCC(N)=O)nnc1-c1ccc(S(=O)(=O)N2CCN(C)CC2)cc1", "Potency": "inconclusive: 18.5 µM [inhibitor, single point]"}, {"smiles": "CCOC(=O)C(NC(=O)c1ccc(F)cc1)(Nc1sc2c(c1C(N)=O)CCC2)C(F)(F)F", "note": "(centres undefined)", "Potency": "inconclusive: 11.7 µM [inhibitor, single point]"}, {"smiles": "CC1CN(S(=O)(=O)c2ccc(C(=O)OCc3ccc(C#N)cc3)cc2)CC(C)O1", "note": "(centres undefined)", "Potency": "inconclusive: 4.15 µM [inhibitor, single point]"}, {"smiles": "CCOC(=O)c1sc(NC(=O)c2cc3ccccc3o2)nc1C", "Potency": "inconclusive: 18.5 µM [inhibitor, single point]"}, {"smiles": "O=C(NCCC1=CCCCC1)c1cccc2c1C(=O)N(C1CCCCC1)C2", "Potency": "inconclusive: 4.15 µM [inhibitor, single point]"}, {"smiles": "C/C(=N\\NC(=O)COc1cccc(Br)c1)c1ccc2c(c1)OCCO2", "activity change, negative = inhibition": "inactive: 55.9%"}, {"smiles": "OCCC1CN(Cc2cn[nH]c2C2CCCCC2)CCN1Cc1ccccc1", "note": "(centres undefined)", "Potency": "inconclusive: 10.4 µM [inhibitor, single point]"}, {"smiles": "O=C(Nc1cccc([N+](=O)[O-])c1)c1cc2ccccc2cc1O", "Potency": "active: 1.85 µM"}, {"smiles": "CCC(=O)Nc1cc(C)c(NC(=O)C23CC4CC(CC(C4)C2)C3)cn1", "Potency": "inconclusive: 16.5 µM [inhibitor, single point]"}, {"smiles": "CC(C)CN1CCC(C(=O)N2CCN(c3ccccc3F)CC2)CC1", "Potency": "inconclusive: 16.5 µM [inhibitor, single point]"}, {"smiles": "CCc1ccccc1NC(=S)N(CCN1CCCCC1)Cc1ccco1", "activity change, negative = inhibition": "inactive: 23.6%"}, {"smiles": "O=C(c1cccc([N+](=O)[O-])c1)c1cc2ccccc2o1", "Potency": "inconclusive: 18.5 µM [inhibitor, single point]"}, {"smiles": "CCCOc1ccc(NC(=O)Cc2ccc(S(=O)(=O)N3CCOCC3)s2)cc1OCCC", "Potency": "inconclusive: 9.28 µM [inhibitor, partial curve, poor fit]"}, {"smiles": "CCNc1nc(NCC)nc(SCCOC(=O)c2ccccc2)n1", "Potency": "inconclusive: 11.7 µM [inhibitor, partial curve, poor fit]"}, {"smiles": "CCOC(=O)N1CCN(C(=O)C2CCN(S(=O)(=O)CC)CC2)CC1", "Potency": "active: 1.65 µM"}, {"smiles": "CCc1ccc2[nH]c(O)c(N=NC3=NC(=O)CS3)c2c1", "Potency": "inconclusive: 13.1 µM [inhibitor, partial curve]"}, {"smiles": "Cc1ccccc1/C=N/NC(=O)CSc1nc2ccccc2o1", "activity change, negative = inhibition": "inactive: 297%"}, {"smiles": "COP(=O)(OC)c1nc(-c2cccc3ccccc23)oc1N1CCOCC1", "Potency": "inconclusive: 9.28 µM [inhibitor, partial curve, poor fit]"}, {"smiles": "C#CCOCCOCCOCCNc1nc(N2CCN(C(=O)CCCCCCCCCCNC(=O)[C@H]([C@@H](C)CC)n3cc(CCCCCN)nn3)CC2)nc(N2CCN(C(=O)CCCCCCCCCCNC(=O)[C@@H]([C@H](C)O)n3cc(C)nn3)CC2)n1", "Potency": "active: 0.37 µM"}, {"smiles": "COc1ccc(C(=O)Nc2ccc3cn[nH]c3c2)c(OC)c1", "activity change, negative = inhibition": "inactive: 275%"}, {"smiles": "CCOC(=O)Cc1ccc(NC(=O)c2ccc([N+](=O)[O-])cc2)cc1", "activity change, negative = inhibition": "inactive: 56.1%"}, {"smiles": "Cc1cccc(OCCNC(=O)c2ccc(Cl)c(S(=O)(=O)NCc3cccnc3)c2)c1", "Potency": "inconclusive: 18.5 µM [inhibitor, single point]"}]}]}
